Measured values: publication PMC7841161, “APE1 distinguishes DNA substrates in exonucleolytic cleavage by induced space-filling”

Sequences of proteins named here, by UniProt entry; tags and fusion partners are left off.
UniProt P28352, whole entry: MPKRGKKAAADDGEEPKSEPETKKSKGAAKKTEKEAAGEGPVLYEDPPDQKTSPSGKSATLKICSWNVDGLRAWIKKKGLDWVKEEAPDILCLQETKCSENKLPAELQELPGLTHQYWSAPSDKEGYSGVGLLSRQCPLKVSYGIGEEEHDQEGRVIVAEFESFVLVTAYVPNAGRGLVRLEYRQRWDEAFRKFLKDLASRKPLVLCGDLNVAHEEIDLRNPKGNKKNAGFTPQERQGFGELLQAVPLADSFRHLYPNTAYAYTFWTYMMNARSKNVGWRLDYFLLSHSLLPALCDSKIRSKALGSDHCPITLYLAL

Target: mAPE1 full-length (mouse) (UniProt P28352)
Assay: EMSA
Settings: 50 mM EDTA, EMSA: 50 mM EDTA, 20 mM Tris-HCl pH 7.0, 120 mM NaCl, on ice 10 min + 10 min, FAM-labeled substrates, TBE native gel, recombinant protein, residues 1-317, label: FAM

Sequence: ACTGGACAAATACTCCGAGG / GAGCACGCTTCACTAATCACAATCGGAGTATTTGTCCAGT [recessed dsDNA 20 nt 5' overhang, 2 nt mismatch]
- binding result (reduced vs other recessed dsDNAs): binds more weakly

Sequence: ACTGGACAAATACTCCGAGG / GAGCACGCTTCACTAATCACACTCGGAGTATTTGTCCAGT [recessed dsDNA 20 nt 5' overhang, 1 nt mismatch]
- binding result: binds

Sequence: ACTGGACAAATACTCCGAGG / GTGATTAGTGAAGCGTGCTC / GAGCACGCTTCACTAATCACCCTCGGAGTATTTGTCCAGT [nicked dsDNA 40 mer 5'-phosphate]
- binding result (weaker than 5'-OH nicked, no low-MW complex, 5'-phosphate at nick (strand 2)): binds more weakly

Sequence: ACTGGACAAATACTCCGAGG / TGATTAGTGAAGCGTGCTC / GAGCACGCTTCACTAATCACACTCGGAGTATTTGTCCAGT [1-nt gapped dsDNA 40 mer, 1 nt mismatch]
- binding result (low-MW complex absent, 5'-phosphate at gap margin (strand 2)): binds more weakly

Sequence: ACTGGACAAATACTCCGAGG [ssDNA 20 nt]
- binding result (single-stranded DNA): binds more weakly

Weaker means in comparison with the reference protein, sequence or condition of that experiment. For at least one entry, the source does not settle the construct or the ends of the probe. At least one verdict rests on a figure or table, not on a statement of the authors.
